PubChem BioAssay AID743121 | NCATS | 2013
Screen: 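Genes whose silencing strengthens cell killing by camptothecin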 (primary screen). Cells: MDA-MB-231 cells, a human breast cancer line. Reagent: single siRNA against human genes, 20 nM siRNA (0.8 pmol per well). Timing: 120 h (drug added 48 h after transfection, read 72 h later). Treatment: camptothecin 20 nM (about EC30) for 72 h; vehicle 0.1% DMSO in parallel plates. Detection: 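CellTiter-Glo ATP signal, scaled to control siRNA as percent viability; sensitisation given as log2 of untreated divided by camptothecin-treated viability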. Direction: log2 vehicle/camptothecin viability: higher = stronger sensitisation to camptothecin. Hit rule: 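Each gene scored by redundant siRNA activity (RSA) over its individual siRNA ratios; a gene is called active at p < 0.001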.
Here is one part, drawn at random, of about 26,000 deposited reagents. Over the whole deposit, 167 (0.63%) are marked active. 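Calls are per gene from RSA p-values that are not deposited; an individual active-marked siRNA can sensitise only weakly.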 Reagents against one gene are numbered here. Further read-outs or replicates are left out here.

The first 8 records, to show the layout:
| Gene | reagent no. | log2 vehicle/camptothecin viability | activity call |
| --- | --- | --- | --- |
| TRIM11 (tripartite motif containing 11) | 1 | -0.212 | inactive |
| TRIM11 (tripartite motif containing 11) | 2 | 0.718 | inactive |
| TRIM11 (tripartite motif containing 11) | 3 | -0.509 | inactive |
| TRIM11 (tripartite motif containing 11) | 4 | 0.238 | inactive |
| USP48 (ubiquitin specific peptidase 48) | 1 | 0.541 | inactive |
| USP48 (ubiquitin specific peptidase 48) | 2 | -0.516 | inactive |
| USP48 (ubiquitin specific peptidase 48) | 3 | -0.443 | inactive |
| USP48 (ubiquitin specific peptidase 48) | 4 | 0.281 | inactive |

Main list, from the first entry:
| Gene | reagent no. | log2 vehicle/camptothecin viability | activity call |
| --- | --- | --- | --- |
| TRIM11 (tripartite motif containing 11) | 1 | -0.212 | inactive |
| TRIM11 (tripartite motif containing 11) | 2 | 0.718 | inactive |
| TRIM11 (tripartite motif containing 11) | 3 | -0.509 | inactive |
| TRIM11 (tripartite motif containing 11) | 4 | 0.238 | inactive |
| USP48 (ubiquitin specific peptidase 48) | 1 | 0.541 | inactive |
| USP48 (ubiquitin specific peptidase 48) | 2 | -0.516 | inactive |
| USP48 (ubiquitin specific peptidase 48) | 3 | -0.443 | inactive |
| USP48 (ubiquitin specific peptidase 48) | 4 | 0.281 | inactive |
| USP48 (ubiquitin specific peptidase 48) | 5 | -0.119 | inactive |
| USP48 (ubiquitin specific peptidase 48) | 6 | -0.561 | inactive |
| USP48 (ubiquitin specific peptidase 48) | 7 | -0.238 | inactive |
| USP48 (ubiquitin specific peptidase 48) | 8 | -0.306 | inactive |
| IL20RA (interleukin 20 receptor subunit alpha) | 1 | -0.557 | inactive |
| IL20RA (interleukin 20 receptor subunit alpha) | 2 | -0.0487 | inactive |
| IL20RA (interleukin 20 receptor subunit alpha) | 3 | -0.154 | inactive |
| IL20RA (interleukin 20 receptor subunit alpha) | 4 | 0.427 | inactive |
| CCL4 (C-C motif chemokine ligand 4) | 1 | -0.137 | inactive |
| CCL4 (C-C motif chemokine ligand 4) | 2 | -0.263 | inactive |
| CCL4 (C-C motif chemokine ligand 4) | 3 | -0.239 | inactive |
| CCL4 (C-C motif chemokine ligand 4) | 4 | 0.193 | inactive |
| CCL4 (C-C motif chemokine ligand 4) | 5 | -0.15 | inactive |
| CCL4 (C-C motif chemokine ligand 4) | 6 | -0.477 | inactive |
| ADORA2A (adenosine A2a receptor) | 1 | 0.0162 | inactive |
| ADORA2A (adenosine A2a receptor) | 2 | -0.486 | inactive |
| ADORA2A (adenosine A2a receptor) | 3 | -0.22 | inactive |
| ADORA2A (adenosine A2a receptor) | 4 | -0.0574 | inactive |
| MAP3K14 (mitogen-activated protein kinase kinase kinase 14) | 1 | -0.352 | inactive |
| MAP3K14 (mitogen-activated protein kinase kinase kinase 14) | 2 | -0.43 | inactive |
| MAP3K14 (mitogen-activated protein kinase kinase kinase 14) | 3 | -0.0727 | inactive |
| MAP3K14 (mitogen-activated protein kinase kinase kinase 14) | 4 | -0.127 | inactive |
| CENPF (centromere protein F) | 1 | 0.0902 | inactive |
| CENPF (centromere protein F) | 2 | -0.544 | inactive |
| CENPF (centromere protein F) | 3 | -0.312 | inactive |
| CENPF (centromere protein F) | 4 | -0.48 | inactive |
| MITF (melanocyte inducing transcription factor) | 1 | -0.202 | inactive |
| MITF (melanocyte inducing transcription factor) | 2 | 0.0208 | inactive |
| MITF (melanocyte inducing transcription factor) | 3 | 0.115 | inactive |
| MITF (melanocyte inducing transcription factor) | 4 | -0.081 | inactive |
| CYSLTR2 (cysteinyl leukotriene receptor 2) | 1 | -0.414 | inactive |
| CYSLTR2 (cysteinyl leukotriene receptor 2) | 2 | -0.147 | inactive |
| CYSLTR2 (cysteinyl leukotriene receptor 2) | 3 | -0.226 | inactive |
| CYSLTR2 (cysteinyl leukotriene receptor 2) | 4 | -0.152 | inactive |
| RAPGEFL1 (Rap guanine nucleotide exchange factor like 1) | 1 | -0.855 | inactive |
| RAPGEFL1 (Rap guanine nucleotide exchange factor like 1) | 2 | -0.333 | inactive |
| RAPGEFL1 (Rap guanine nucleotide exchange factor like 1) | 3 | -0.0578 | inactive |
| RAPGEFL1 (Rap guanine nucleotide exchange factor like 1) | 4 | -0.0537 | inactive |
| HTR3B (5-hydroxytryptamine receptor 3B) | 1 | -0.37 | inactive |
| HTR3B (5-hydroxytryptamine receptor 3B) | 2 | -0.00804 | inactive |
| HTR3B (5-hydroxytryptamine receptor 3B) | 3 | -0.0288 | inactive |
| HTR3B (5-hydroxytryptamine receptor 3B) | 4 | -0.147 | inactive |
| DGUOK (deoxyguanosine kinase) | 1 | -0.313 | inactive |
| DGUOK (deoxyguanosine kinase) | 2 | -0.26 | inactive |
| DGUOK (deoxyguanosine kinase) | 3 | 0.674 | inactive |
| DGUOK (deoxyguanosine kinase) | 4 | 0.137 | inactive |
| DCLRE1C (DNA cross-link repair 1C) | 1 | 0.221 | inactive |
| DCLRE1C (DNA cross-link repair 1C) | 2 | -0.0746 | inactive |
| DCLRE1C (DNA cross-link repair 1C) | 3 | -0.321 | inactive |
| DCLRE1C (DNA cross-link repair 1C) | 4 | -0.313 | inactive |
| HNMT (histamine N-methyltransferase) | 1 | -0.38 | inactive |
| HNMT (histamine N-methyltransferase) | 2 | -0.0177 | inactive |
| HNMT (histamine N-methyltransferase) | 3 | 0.517 | inactive |
| HNMT (histamine N-methyltransferase) | 4 | -0.26 | inactive |
| PALS1 (protein associated with LIN7 1, MAGUK p55 family member) | 1 | -0.268 | inactive |
| PALS1 (protein associated with LIN7 1, MAGUK p55 family member) | 2 | -0.109 | inactive |
| PALS1 (protein associated with LIN7 1, MAGUK p55 family member) | 3 | -0.0634 | inactive |
| PALS1 (protein associated with LIN7 1, MAGUK p55 family member) | 4 | 0.163 | inactive |
| DNER (delta/notch like EGF repeat containing) | 1 | -0.399 | inactive |
| DNER (delta/notch like EGF repeat containing) | 2 | -0.0457 | inactive |
| DNER (delta/notch like EGF repeat containing) | 3 | 0.0847 | inactive |
| DNER (delta/notch like EGF repeat containing) | 4 | -0.0156 | inactive |
